Results are given in words; binding and its absence hold for the method and conditions named. Binding seen in cells or lysates may run through a third protein. Some binding calls cover weakened binding; strength is not graded here. Tags and fused reporters may be left off the sequences shown.
Biological target: T1, GST-Ad9 E4-ORF1 fusion protein (human adenovirus type 9 (Ad9)) (UniProt P89079)
T1 sequence: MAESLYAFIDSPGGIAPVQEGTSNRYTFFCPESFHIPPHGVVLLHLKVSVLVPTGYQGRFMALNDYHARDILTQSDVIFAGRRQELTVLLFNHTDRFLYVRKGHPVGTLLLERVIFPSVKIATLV
Test: pull-down; MCF10A cell extract (500 µg of protein, RIPA buffer) with GST or GST-Ad9 E4-ORF1 on glutathione-sepharose beads; immunoblot; only the target purified

By UniProt entry, the sequences of proteins in these tests, tags left out.
UniProt Q14160: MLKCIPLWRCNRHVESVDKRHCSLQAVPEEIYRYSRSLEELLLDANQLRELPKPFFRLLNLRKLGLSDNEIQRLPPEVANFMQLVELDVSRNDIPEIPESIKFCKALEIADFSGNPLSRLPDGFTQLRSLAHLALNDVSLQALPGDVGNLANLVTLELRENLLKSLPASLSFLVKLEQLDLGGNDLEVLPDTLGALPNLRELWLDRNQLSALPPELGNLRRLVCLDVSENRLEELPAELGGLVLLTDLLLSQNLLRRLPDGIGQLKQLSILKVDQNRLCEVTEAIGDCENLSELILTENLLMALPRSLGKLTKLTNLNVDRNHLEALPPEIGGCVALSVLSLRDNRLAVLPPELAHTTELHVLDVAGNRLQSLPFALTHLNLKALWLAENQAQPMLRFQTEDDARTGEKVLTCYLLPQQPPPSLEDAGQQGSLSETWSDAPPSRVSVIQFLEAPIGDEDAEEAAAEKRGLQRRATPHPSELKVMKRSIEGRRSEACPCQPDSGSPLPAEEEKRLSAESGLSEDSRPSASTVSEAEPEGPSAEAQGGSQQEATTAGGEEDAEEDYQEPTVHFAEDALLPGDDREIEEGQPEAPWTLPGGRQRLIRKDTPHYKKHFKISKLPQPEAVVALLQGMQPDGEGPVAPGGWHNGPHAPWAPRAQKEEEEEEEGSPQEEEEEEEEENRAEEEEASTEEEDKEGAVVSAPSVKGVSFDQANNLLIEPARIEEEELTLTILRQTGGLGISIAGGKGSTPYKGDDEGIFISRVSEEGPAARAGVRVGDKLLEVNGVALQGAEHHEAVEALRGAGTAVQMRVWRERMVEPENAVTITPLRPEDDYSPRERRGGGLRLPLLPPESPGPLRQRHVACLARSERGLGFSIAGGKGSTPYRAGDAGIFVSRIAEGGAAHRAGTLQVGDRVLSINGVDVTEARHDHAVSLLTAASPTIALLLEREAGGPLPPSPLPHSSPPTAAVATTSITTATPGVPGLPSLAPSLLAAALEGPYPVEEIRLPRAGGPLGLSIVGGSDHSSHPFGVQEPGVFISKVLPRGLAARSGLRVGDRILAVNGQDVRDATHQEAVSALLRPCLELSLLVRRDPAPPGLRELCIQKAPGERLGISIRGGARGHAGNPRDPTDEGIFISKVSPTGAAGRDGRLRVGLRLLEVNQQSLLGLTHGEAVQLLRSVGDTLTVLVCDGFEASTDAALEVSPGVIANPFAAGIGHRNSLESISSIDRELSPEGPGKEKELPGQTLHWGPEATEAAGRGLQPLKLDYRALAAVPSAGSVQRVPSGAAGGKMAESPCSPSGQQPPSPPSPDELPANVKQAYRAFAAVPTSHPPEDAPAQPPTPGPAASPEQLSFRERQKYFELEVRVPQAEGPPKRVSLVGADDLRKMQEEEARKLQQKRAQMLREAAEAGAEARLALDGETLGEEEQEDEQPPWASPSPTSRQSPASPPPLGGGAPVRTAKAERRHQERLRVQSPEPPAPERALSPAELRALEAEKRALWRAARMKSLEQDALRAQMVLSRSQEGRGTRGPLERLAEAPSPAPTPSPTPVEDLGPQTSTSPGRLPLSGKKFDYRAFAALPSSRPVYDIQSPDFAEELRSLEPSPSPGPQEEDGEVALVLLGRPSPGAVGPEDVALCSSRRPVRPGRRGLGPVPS
UniProt O00459: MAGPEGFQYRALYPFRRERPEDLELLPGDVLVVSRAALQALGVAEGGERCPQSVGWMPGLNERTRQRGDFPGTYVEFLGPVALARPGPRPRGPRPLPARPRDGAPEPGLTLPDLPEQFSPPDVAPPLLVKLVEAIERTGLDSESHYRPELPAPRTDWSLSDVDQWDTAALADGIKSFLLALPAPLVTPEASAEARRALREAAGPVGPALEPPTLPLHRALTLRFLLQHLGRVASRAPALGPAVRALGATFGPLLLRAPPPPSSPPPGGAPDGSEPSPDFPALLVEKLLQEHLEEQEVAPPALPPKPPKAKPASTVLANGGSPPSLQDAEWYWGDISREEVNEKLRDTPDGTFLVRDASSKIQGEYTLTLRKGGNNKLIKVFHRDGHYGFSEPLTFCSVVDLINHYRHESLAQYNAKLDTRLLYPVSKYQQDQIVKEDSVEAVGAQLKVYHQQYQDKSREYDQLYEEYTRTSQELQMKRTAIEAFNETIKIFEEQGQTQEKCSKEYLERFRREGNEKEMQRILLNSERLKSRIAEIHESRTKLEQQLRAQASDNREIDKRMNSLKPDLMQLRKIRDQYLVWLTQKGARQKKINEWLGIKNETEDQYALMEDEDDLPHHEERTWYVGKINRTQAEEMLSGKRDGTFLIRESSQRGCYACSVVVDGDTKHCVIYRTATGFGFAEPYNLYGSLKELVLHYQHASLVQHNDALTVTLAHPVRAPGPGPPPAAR

Row | Substance | binding
1 | scribble (endogenous cellular PDZ protein) (from UniProt Q14160 1-1655) | no binding
2 | PI3K regulatory subunit p85β (endogenous) (from UniProt O00459 1-728) | binds

Reference: publication PMC4006922
